Holding throughout (experiment): SEC; gel filtration (Superdex S75 or Superdex 200) in 25 mM HEPES, pH 7.2, 150 mM NaCl, 2 mM DTT; elution volumes; both purified
In general terms: Size exclusion chromatography separates by hydrodynamic size, large species first.

In experiment [1] the target is full-length human METTL16 (1-562 aa) (human) (UniProt Q86W50).
In experiment [2] the target is METTL16-ΔN (40-291 aa) (human) (UniProt Q86W50).
The target in experiment [3] is METTL16-core (1-291 aa) (human) (UniProt Q86W50).

Consider three molecules from article PMC6162343.

These are yes or no findings as the source states them, for the method shown.

B1: full-length human METTL16 (1-562 aa) (enzyme, UniProt Q86W50-1 1-562)
chain: MALSKSMHARNRYKDKPPDFAYLASKYPDFKQHVQINLNGRVSLNFKDPEAVRALTCTLLREDFGLSIDIPLERLIPTVPLRLNYIHWVEDLIGHQDSDKSTLRRGIDIGTGASCIYPLLGATLNGWYFLATEVDDMCFNYAKKNVEQNNLSDLIKVVKVPQKTLLMDALKEESEIIYDFCMCNPPFFANQLEAKGVNSRNPRRPPPSSVNTGGITEIMAEGGELEFVKRIIHDSLQLKKRLRWYSCMLGKKCSLAPLKEELRIQGVPKVTYTEFCQGRTMRWALAWSFYDDVTVPSPPSKRRKLEKPRKPITFVVLASVMKELSLKASPLRSETAEGIVVVTTWIEKILTDLKVQHKRVPCGKEEVSLFLTAIENSWIHLRRKKRERVRQLREVPRAPEDVIQALEEKKPTPKESGNSQELARGPQERTPCGPALREGEAAAVEGPCPSQESLSQEENPEPTEDERSEEKGGVEVLESCQGSSNGAQDQEASEQFGSPVAERGKRLPGVAGQYLFKCLINVKKEVDDALVEMHWVEGQNRDLMNQLCTYIRNQIFRLVAVN
In the case of B1, the binding entry in experiment [1] is on record as “no binding”.

B2: METTL16-ΔN (40-291 aa) (domain or fragment, UniProt Q86W50-1 40-291)
chain: GRVSLNFKDPEAVRALTCTLLREDFGLSIDIPLERLIPTVPLRLNYIHWVEDLIGHQDSDKSTLRRGIDIGTGASCIYPLLGATLNGWYFLATEVDDMCFNYAKKNVEQNNLSDLIKVVKVPQKTLLMDALKEESEIIYDFCMCNPPFFANQLEAKGVNSRNPRRPPPSSVNTGGITEIMAEGGELEFVKRIIHDSLQLKKRLRWYSCMLGKKCSLAPLKEELRIQGVPKVTYTEFCQGRTMRWALAWSFYD
In the case of B2, the binding result in experiment [2] is listed as “no binding”.

B3: METTL16-core (1-291 aa) (domain or fragment, UniProt Q86W50-1 1-291)
chain: MALSKSMHARNRYKDKPPDFAYLASKYPDFKQHVQINLNGRVSLNFKDPEAVRALTCTLLREDFGLSIDIPLERLIPTVPLRLNYIHWVEDLIGHQDSDKSTLRRGIDIGTGASCIYPLLGATLNGWYFLATEVDDMCFNYAKKNVEQNNLSDLIKVVKVPQKTLLMDALKEESEIIYDFCMCNPPFFANQLEAKGVNSRNPRRPPPSSVNTGGITEIMAEGGELEFVKRIIHDSLQLKKRLRWYSCMLGKKCSLAPLKEELRIQGVPKVTYTEFCQGRTMRWALAWSFYD
Consider B3, for which the binding entry in experiment [3] was “no binding”.
